Measured values taken from patent US20160256457A1, “METHODS FOR TREATING OR PREVENTING ACUTE VASCULAR LEAK” (Beth Israel Deaconess Medical Center, Inc., priority 2014, published 2016).
“Also recorded” adds a separate entry of the source. At least one structure is not confirmed: it was looked up by name or label, or the drawing left a doubt.

Test system: Primary human dermal microvascular endothelial cells
Assay: ECIS steady-state barrier function of confluent endothelial monolayers
Format: cell-based
Protocol: (§1) Primary human dermal microvascular endothelial cells were grown to confluence. […] Data are mean±SEM of three independent experiments.
as §1, §1

Cc1nc(Nc2ncc(C(=O)Nc3c(C)cccc3Cl)s2)cc(N2CCN(CCO)CC2)n1 [dasatinib, Dasatinib]
endothelial barrier function (ECIS) compared to other Src inhibitors (bosutinib 300 nM, dasatinib 300 nM, PP2 10 μM, monitored ~22 hours, FIG. 7): greatly reduced, endothelial barrier function; also recorded: sustained decreases in barrier function | vascular barrier function (ECIS resistance, normalized to 1) (single 300 nM dose, monitored 3 hours, FIG. 1): reduced endothelial barrier function; also recorded: decreases in resistance
